Measurements taken from PubChem BioAssay (Tox21).
The inconclusive results got no clear call from the source; some entries with a clear call stand among them for comparison. For part of these data: Where the call is inconclusive, the potency comes from a doubtful curve fit. The source made the active and inactive calls. Unless noted, calls come from the whole dose curve.
% is set by controls: 0 for no effect and ±100 for the full control effect.

The chains behind the UniProt entries cited, without tags or fusion partners.
UniProt P14416, whole entry, looked up: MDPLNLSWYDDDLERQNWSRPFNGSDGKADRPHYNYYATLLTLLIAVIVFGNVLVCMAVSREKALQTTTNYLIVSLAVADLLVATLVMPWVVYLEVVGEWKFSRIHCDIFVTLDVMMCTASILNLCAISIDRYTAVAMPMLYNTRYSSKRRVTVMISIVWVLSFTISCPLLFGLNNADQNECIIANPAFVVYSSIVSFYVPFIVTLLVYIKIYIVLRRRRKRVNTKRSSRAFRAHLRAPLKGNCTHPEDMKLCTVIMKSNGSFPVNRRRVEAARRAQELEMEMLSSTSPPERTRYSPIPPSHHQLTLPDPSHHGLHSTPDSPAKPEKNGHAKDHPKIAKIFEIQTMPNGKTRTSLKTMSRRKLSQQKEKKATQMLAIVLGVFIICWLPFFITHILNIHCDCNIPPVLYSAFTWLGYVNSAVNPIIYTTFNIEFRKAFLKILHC

The compounds below were run against Beta-2 adrenergic receptor (Homo sapiens) (UniProt P07550) (assay: Adrenergic beta2 receptor (ADRB2) small molecule agonists, cell-based qHTS assay (AID 1963593;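 note: CHO cells stably overexpressing human ADRB2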)). Details: CHO-ADRB2 cells, cAMP HTRF, 30 min; at 92.4 µM (top of the series).
In short: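 CHO cells stably over-expressing ADRB2 were plated overnight at 37C, then dosed with compounds plus a stimulation mix containing 100uM IBMX and 25uM Ro-20-1724 for 0.5hr at room temperature. cAMP was measured by HTRF competition, 1hr.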
In the case of `Cn1sccc1=O`, the activation is reported as inactive: 14.9%.
With `C[N+](C)(C)CCO` the activation was inactive: 15.3%.
In the case of `COc1ccc(Nc2ccccc2)c(C)c1`, the activation is reported as inactive: -15.3%.

Each compound was assayed against D(2) dopamine receptor (Homo sapiens) (UniProt P14416) (assay: Dopamine D2 receptor (DRD2) small molecule agonists, cell-based qHTS assay (AID 1963594; note: nearly all actives have a fitted effect of over 35% in size; note: potency is the fitted concentration of half-maximal effect)). Details: HEK293-DRD2 cAMP HTRF, agonist mode, 30 min; activation: at 92.4 µM (top of the series) unless noted.
In short: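 HEK293 cells stably expressing DRD2 were cultured 24 h at 37 C, then given Ro20-1724 (0.1 mM final) and compounds for 10 min at room temperature. NKH477 (200nM) was then added for 30 min. cAMP was read by HTRF.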
For `CN(C)C/C=C(/c1ccc(Br)cc1)c1cccnc1`, the activation was inconclusive: -15.8% [at 42.5 µM].
`COc1cccc(-c2ccc(/C=C\CN3CCCCCC3)cc2Cl)c1` was tested, and the activation was inconclusive: -33.3%.
`O=C(NCCc1c[nH]c2ccccc12)c1cccnc1` was tested, and the activation was inconclusive: -1.72% [at 42.5 µM].
In the case of `OCCc1ccncc1`, the Potency is reported as “inactive”.
For `O=C(O)CC(=O)C(=O)O`, the Potency was inconclusive: 57.1 µM [rising, partial curve, poor fit].

The compounds below were run against D(2) dopamine receptor (Homo sapiens) (UniProt P14416) (assay: Dopamine D2 receptor (DRD2) small molecule antagonists, cell-based qHTS assay (AID 1963595; active = well fitted inhibition curve with a large enough effect in the signal ratio in the repeat runs, with a control signal flat; inconclusive = weak or mixed curves, or effect the other way; the % refers to the signal ratio; note: potency is the fitted concentration of half-maximal effect)). Details: HEK293-DRD2 cAMP HTRF antagonist mode; activity change, negative = inhibition: at 92.4 µM (top of the series) unless noted.
In short: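 Stable D2 receptor HEK293 line, 24 h after seeding. Compound preincubated 10 min, then quinpirole (12 nM) with forskolin analogue NKH477 (200 nM), 30 min, room temperature. Detection by time-resolved FRET of cAMP.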
In the case of `CN(C)C/C=C(/c1ccc(Br)cc1)c1cccnc1`, the activity change, negative = inhibition is reported as inconclusive: -20.8% [at 42.5 µM].
For `Cn1sccc1=O`, the activity change, negative = inhibition was inconclusive: -30%.
In the case of `COc1cccc(-c2ccc(/C=C\CN3CCCCCC3)cc2Cl)c1`, the Potency is reported as inconclusive: 60.9 µM [inhibitor, single point].
With `O=C(c1ccc2c(c1)C(=O)OC2=O)c1ccc2c(c1)C(=O)OC2=O` the activity change, negative = inhibition was inconclusive: -21%.
